Broadly, the apparent Kd is a dissociation constant that holds for the conditions of the assay.

B1: il10ra_site1_sap_21_mot_HHH_b2_07442_000000239_0001_40_54_H_._HHH_b2_00236_af2_0001_0000500036_0000001_0_0001 (protein)
chain: SSSSDEEERQLKELLEELKELVEEGDRERFAKVVLELLRLAFQLRDEEALQLLWELMEELASSSS
B2: il10ra_site1_normal_mot_HHH_b2_00984_000000042_0001_1_20_H_._HHH_b1_06168_af2_0001_0000500031_0000001_0_af2pred_0001 (protein)
chain: SSSSDEEEKEIEELIEEVERLLKEGDPEEASRLVIEALQLAAEIQNPELLERLARLSREILSSSS
B3: il10ra_site1_normal_mot_HHH_b1_06994_000000193_0001_40_55_H_._HHH_b1_07129_0001_0000100013_0000001_0 (protein)
chain: SSSSDQEEELLRAALRLIEQIFEAGDPRAARILLEAAQRIAEQLGNEELLKKLEELEEEISSSSS
B4: il10ra_site1_normal_mot_HHH_b1_00999_000000080_0001_41_55_H_._HHH_b2_03012_0001_0000300027_0000002_0 (protein)
chain: SSSSSSSEEEVEELLEEAQKIDDPRERNRALVRALQIAIQSQDPELLQEVWRVIKELGSSSSSSS
B5: il10ra_site1_normal_mot_HHH_b2_00943_af2_000000149_0001_1_17_H_._d3c612d18aab0e0945b39b51a1e20ad4_0001_1_af2_0001_0000500040_0000001_0_af2pred_0001 (protein)
chain: SAEEVLQRQVERDPDDASALHLLLLVLAAKEGDPELVQLLRRANELSREGNPEEAREILQEAIER
B6: il10ra_site1_normal_mot_HHH_b2_00441_000000147_0001_1_18_H_._HHH_b1_04947_af2_0001_0000200007_0000001_0_af2pred_0001 (protein)
chain: SSSSDEYLKKAIRALFRAIKRAIELGDEEVVRLALKDLRFLAREHNDEEAEELLKELEELLSSSS
B7: il10ra_site1_sap_27_mot_39a7b8d0c4c3fc04bafbda6ce6101d3a_0001_1_af2_000000014_0001_34_48_H_._HHH_b1_08490_0001_0000300019_0000001_0_0001 (protein)
chain: SSSSTESQEVYEILREIVELIHEGDDEEAEELIRELKKLIEELGNRVMLMVLRYLEEHLNSSSSS
B8: il10ra_site1_sap_10_mot_HHH_b2_02315_000000136_0001_19_35_H_._7c653bbcfd290f4ebb70a7ee4eba5725_0001_0001_0000600021_0000001_0_0001_af2pred_0001 (protein)
chain: SSSSSAEEAVRLLLRAAKLAVELNDPERVKRALHLAERAARAENDEEAERLVEEVREEIEKSSSS
B9: il10ra_site1_normal_mot_HHH_b2_04912_000000028_0001_1_20_H_._HHH_b1_01163_af2_0001_0000300022_0000001_0 (protein)
chain: SSSSSDLNERALRLSREAFRLALRGNPEEARELLEEALELAEEANNERLFRQIEELLETQSSSSS
B10: il10ra_site1_normal_mot_HHH_b2_07145_000000168_0001_24_40_H_._HHH_b1_05095_af2_0001_0000200027_0000002_1 (protein)
chain: SSSSQEEFEELKKLIEEAIEALRNGNPEEAREILEQALELAEEANNTSARFAIRRVLELISSSSS
B11: il10ra_site1_sap_21_mot_HHH_b2_02053_af2_000000006_0001_3_19_H_._HHH_b1_02045_0001_0000100002_0000001_0_0001_af2pred_0001 (protein)
chain: SSSSSDTVEVALKAAERLLEEGNPEAAERAVRRAKEVAEQLGDEELQEEVERLLEEIERRSSSSS
B12: il10ra_site1_normal_mot_6805e7cfcec1a9f49da1e1cd80eb4878_0001_af2_000000116_0001_1_14_H_._b175c77b65581325a115f305b9dd1fb0_0001_1_0001_0000200004_0000001_1_af2p … (protein)
chain: SLEDVLTAALQEAFDIPREVAQAALDQLRAQAKTDEELAQAVAAALELAGRPELAARAREALRRS
B13: il10ra_site1_normal_mot_05ca327611f5605f0dd8494b449afcbf_0001_1_000000248_0001_35_51_H_._HHH_b2_06634_0001_0000200008_0000001_1 (protein)
chain: SSSSSEESQIVQELLRKAIELIRKGNPEEAEELLEEAERVAEEGNNPVLEFAIRAVEKALNSSSS
B14: il10ra_site1_normal_mot_HHH_b2_08186_000000021_0001_43_56_H_._HHH_b2_03908_0001_0000100004_0000001_0 (protein)
chain: SSSSDVEERVKELIEQIEELLEEGNEEEARELLLEALQLAYEGQNPELLRELWELLQRLASSSSS
B15: il10ra_site1_normal_mot_HHH_b2_00984_000000042_0001_1_20_H_._HHH_b1_07343_0001_0000600038_0000001_0 (protein)
chain: SSSSTEEFLRLLQEALRLAIRLRDPEALQEIWELIREYIREGDPRLEEELEELVEELRRRGSSSS
B16: il10ra_site1_normal_mot_HHH_b1_06816_000000239_0001_1_19_H_._HHH_b1_07754_0001_0000500010_0000001_1 (protein)
chain: SSSSSSDREEEAEELLEELKQIPDPDERFKLAREAIELAVEAGDPELARRISRLAAELSSSSSSS
B17: il10ra_site1_sap_17_mot_HHH_b1_02881_000000046_0001_1_20_H_._HHH_b2_00998_0001_0000100006_0000001_0_0001_af2pred_0001 (protein)
chain: SSSSEAQEIALEAAVEARRLLLRGNPEEARKVLEEAEEELRELNDPRAVLTIELLLRIIEESSSS
B18: il10ra_site1_sap_24_mot_HHH_b2_05548_000000224_0001_41_54_H_._HHH_b2_01208_0001_0000100017_0000001_0_0001 (protein)
chain: SSSSDEEEVEELIEEIERLLEEGDPEKAVELIRRLAELAHELNDPELARIVLELSRLVVDRSSSS
B19: il10ra_site1_sap_23_mot_HHH_b1_00566_000000151_0001_22_39_H_._HHH_b2_03844_0001_0000200011_0000002_0_0001 (protein)
chain: SSSSTELTERVYKLSEEALELEARGNPEEAEKVLEEAEEIAEEAGSRALLEVVRYFLEKLRSSSS

Some of the results follow.

The experiment deals with il10ra, Q13651. As to the kind of experiment: yeast display titration.
Take B1: the apparent Kd is inactive: > 1210 nM.

As to B2, the “apparent Kd” value was “inactive: no binding seen”.

Consider B3, for which the “apparent Kd” value was “inactive: no binding seen”.

For B4, the “apparent Kd” value was “inactive: no binding seen”.

For B5, the “apparent Kd” value is “inactive: no binding seen”.

As for B6, the “apparent Kd” value was “inactive: no binding seen”.

B7: the “apparent Kd” value was “inactive: no binding seen”.

As for B8, the “apparent Kd” value is “inactive: no binding seen”.

For B9, the “apparent Kd” value is “inactive: no binding seen”.

For B10, the “apparent Kd” value is “inactive: no binding seen”.

B11: the “apparent Kd” value is “inactive: no binding seen”.

For the molecule B12, the “apparent Kd” value was “inactive: no binding seen”.

In the case of B13, the “apparent Kd” value was “inactive: no binding seen”.

On to B14, for which the “apparent Kd” value was “inactive: no binding seen”.

For the molecule B15, the “apparent Kd” value was “inactive: no binding seen”.

On to B16, for which the “apparent Kd” value was “inactive: no binding seen”.

B17: the “apparent Kd” value is “inactive: no binding seen”.

Regarding B18, the “apparent Kd” value is “inactive: no binding seen”.

In the case of B19, the “apparent Kd” value was “inactive: no binding seen”.
